In the test the target is E2F transcription factor 1 (E2F1) (human (endogenous in MDA-MB-231)) (UniProt Q01094). In words: co-IP; MDA-MB-231 cell lysates in RIPA buffer, 1.0 mg total protein; anti-E2F1 at 4 °C overnight, then 20 µL agarose beads at 4 °C for 2 h; Western blot.

By UniProt entry, the sequences of proteins in these tests, tags left out. Where a name states a change or a piece, a line headed by the entry shows the natural chain unless it says otherwise.
UniProt Q01094: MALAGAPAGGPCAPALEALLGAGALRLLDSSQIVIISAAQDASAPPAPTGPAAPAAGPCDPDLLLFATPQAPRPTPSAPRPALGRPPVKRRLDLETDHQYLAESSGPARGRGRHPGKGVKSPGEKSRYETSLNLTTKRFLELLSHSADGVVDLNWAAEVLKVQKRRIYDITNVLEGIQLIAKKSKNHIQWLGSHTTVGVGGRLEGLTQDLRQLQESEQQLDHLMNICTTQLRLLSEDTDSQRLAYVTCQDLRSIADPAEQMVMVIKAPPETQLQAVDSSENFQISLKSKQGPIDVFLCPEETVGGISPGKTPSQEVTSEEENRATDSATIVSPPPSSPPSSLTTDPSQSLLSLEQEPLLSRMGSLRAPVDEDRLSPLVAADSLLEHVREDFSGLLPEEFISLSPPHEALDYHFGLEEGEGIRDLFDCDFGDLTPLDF
UniProt Q96FF9: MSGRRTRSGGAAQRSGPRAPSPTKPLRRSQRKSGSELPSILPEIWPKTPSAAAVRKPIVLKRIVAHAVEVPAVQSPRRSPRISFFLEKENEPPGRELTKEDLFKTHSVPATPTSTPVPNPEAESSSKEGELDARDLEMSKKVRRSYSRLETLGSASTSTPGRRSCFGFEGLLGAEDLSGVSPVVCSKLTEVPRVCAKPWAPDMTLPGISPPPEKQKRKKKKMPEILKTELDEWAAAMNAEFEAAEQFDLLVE

This note sets out measurements from publication PMC11232132.

No constants are given. Whether binding was seen depends on the method and setting. Binding seen in cells or lysates may run through a third protein. Some entries that bind do so weakly or less than the wild type.

For the substance “Cell division cycle associated 5 (CDCA5) (from UniProt Q96FF9 1-252)”, the binding entry is “binds”.
